These results are taken from article PMC9144539.

In test [1] the target is T1, split YFP fusion of AFP1 (Arabidopsis) (UniProt Q9LQ98).
T1 sequence: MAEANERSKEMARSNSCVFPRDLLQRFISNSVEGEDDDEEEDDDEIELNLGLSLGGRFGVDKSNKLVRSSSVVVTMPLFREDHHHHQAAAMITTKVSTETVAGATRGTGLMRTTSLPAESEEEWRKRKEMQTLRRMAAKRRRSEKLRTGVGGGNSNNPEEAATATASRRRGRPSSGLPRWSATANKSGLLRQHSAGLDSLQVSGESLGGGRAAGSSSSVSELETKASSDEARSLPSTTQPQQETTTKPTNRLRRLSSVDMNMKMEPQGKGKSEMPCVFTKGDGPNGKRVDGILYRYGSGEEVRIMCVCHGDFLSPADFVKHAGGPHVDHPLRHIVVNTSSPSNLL
The experiment in a line: split reporter; split YFP (BiFC) in N. benthamiana; DELLAs in pSITE-cEYFP-C1; done as described in ref. 32.

Test [2] concerns the target T2, split YFP fusion of AFP2 (Arabidopsis) (UniProt Q9LMX5).
T2 sequence: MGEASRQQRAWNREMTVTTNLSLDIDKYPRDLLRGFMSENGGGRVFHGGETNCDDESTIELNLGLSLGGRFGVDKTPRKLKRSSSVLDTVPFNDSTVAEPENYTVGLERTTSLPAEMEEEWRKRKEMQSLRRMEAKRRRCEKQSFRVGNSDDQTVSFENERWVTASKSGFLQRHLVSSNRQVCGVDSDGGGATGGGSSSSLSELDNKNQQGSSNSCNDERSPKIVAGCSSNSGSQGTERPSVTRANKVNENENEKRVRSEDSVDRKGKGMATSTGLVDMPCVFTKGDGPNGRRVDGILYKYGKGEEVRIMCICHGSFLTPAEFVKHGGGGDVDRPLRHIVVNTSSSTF
The test is described as above.

Test [3] addresses T3, GAL4 binding domain fusion of AFP1 (ABI5-binding protein 1) (Arabidopsis) (UniProt Q9LQ98).
T3 sequence: T1 sequence
Nature of the test: two-hybrid; GAL4 AD fusions (pACT2lox) and GAL4 BD fusions; matings between haploid yeast lines, replica-plated on selective media; growth on -HALW shows activation of the HIS3 and ADE2 reporters.

For test [4], the target named is T4, GAL4 binding domain fusion of AFP2 (ABI5-binding protein 2) (Arabidopsis) (UniProt Q9LMX5).
T4 sequence: T2 sequence
The test is described as above.

Test [5] has as its target T5, GAL4 binding domain fusion of ABI5 (Arabidopsis) (UniProt Q9SJN0).
T5 sequence: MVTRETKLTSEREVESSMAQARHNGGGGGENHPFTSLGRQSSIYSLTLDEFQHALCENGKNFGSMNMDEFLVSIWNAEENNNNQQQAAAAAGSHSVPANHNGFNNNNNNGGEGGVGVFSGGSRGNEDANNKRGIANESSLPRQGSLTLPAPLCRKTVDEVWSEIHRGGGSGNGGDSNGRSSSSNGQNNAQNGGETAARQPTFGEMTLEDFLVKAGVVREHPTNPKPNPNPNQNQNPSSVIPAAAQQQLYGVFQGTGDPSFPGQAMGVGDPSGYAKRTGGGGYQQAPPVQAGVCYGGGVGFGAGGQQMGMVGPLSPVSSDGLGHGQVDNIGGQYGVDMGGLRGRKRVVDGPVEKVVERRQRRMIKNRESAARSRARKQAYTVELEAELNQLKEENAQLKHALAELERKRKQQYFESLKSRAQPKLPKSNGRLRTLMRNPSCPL
The test is described as above.

These are yes or no findings as the source states them, for the method shown. For some assays here: Binding seen in cells or lysates may run through a third protein. Some entries that bind do so weakly or less than the wild type. Where a sequence is shown, tags or fusion partners need not be part of it.

B1: split YFP fusion of ABI5 (protein, UniProt Q9SJN0 1-442)
chain: T5 sequence
On to B1, for which the binding result in test [1] and in test [2] was “binds” each time.

B2: GAL4 activation domain fusion of ABI5 (protein, UniProt Q9SJN0 1-442)
chain: T5 sequence
As for B2, the binding entry in test [3] and in test [4] was “binds” throughout.

B3: GAL4 activation domain fusion of the DELLA domain of RGA2 (codons 1-121) (domain or fragment, UniProt Q9LQT8 1-121)
chain: MKRDHHHHHHQDKKTMMMNEEDDGNGMDELLAVLGYKVRSSEMADVAQKLEQLEVMMSNVQEDDLSQLATETVHYNPAELYTWLDSMLTDLNPPSSNAEYDLKAIPGDAILNQFAIDSASS
With B3, the binding entry in test [5] is “binds”.

B4: GAL4 activation domain fusion of the GRAS domain of RGA2 (codons 115-533) (domain or fragment, UniProt Q9LQT8 115-533)
chain: AIDSASSSNQGGGGDTYTTNKRLKCSNGVVETTTATAESTRHVVLVDSQENGVRLVHALLACAEAVQKENLTVAEALVKQIGFLAVSQIGAMRKVATYFAEALARRIYRLSPSQSPIDHSLSDTLQMHFYETCPYLKFAHFTANQAILEAFQGKKRVHVIDFSMSQGLQWPALMQALALRPGGPPVFRLTGIGPPAPDNFDYLHEVGCKLAHLAEAIHVEFEYRGFVANTLADLDASMLELRPSEIESVAVNSVFELHKLLGRPGAIDKVLGVVNQIKPEIFTVVEQESNHNSPIFLDRFTESLHYYSTLFDSLEGVPSGQDKVMSEVYLGKQICNVVACDGPDRVERHETLSQWRNRFGSAGFAAAHIGSNAFKQASMLLALFNGGEGYRVEESDGCLMLGWHTRPLIATSAWKLSTN
B4: the binding result is listed as “binds weakly” in test [3], “binds” in test [5] and “binds weakly” in test [4].
